System: polarized human Caco-2-BBE cells
Assay: Nitric oxide production in polarized Caco-2-BBE cells
Format: cell-based

NCCC[C@H](N)C(=O)O [ornithine]
NO production (fluorescence intensity): NO production increases
